# From the supplement of paper PMC10849652
# Protein sequences, listed by entry. Tags and fused reporters are not part of them. Lines headed by an entry give the natural chain unless they say otherwise; changes in a name come on top.
# UniProt Q9UI38: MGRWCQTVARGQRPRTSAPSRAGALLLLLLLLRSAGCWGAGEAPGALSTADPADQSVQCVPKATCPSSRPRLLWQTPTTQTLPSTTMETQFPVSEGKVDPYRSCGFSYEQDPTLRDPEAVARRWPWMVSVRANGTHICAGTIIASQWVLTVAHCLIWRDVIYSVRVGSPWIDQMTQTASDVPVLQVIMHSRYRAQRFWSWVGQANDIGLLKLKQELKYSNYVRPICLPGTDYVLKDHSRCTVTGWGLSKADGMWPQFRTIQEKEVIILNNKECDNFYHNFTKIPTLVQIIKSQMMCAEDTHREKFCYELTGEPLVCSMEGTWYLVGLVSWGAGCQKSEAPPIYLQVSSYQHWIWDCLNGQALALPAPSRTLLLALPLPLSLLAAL
# UniProt Q9UHX1: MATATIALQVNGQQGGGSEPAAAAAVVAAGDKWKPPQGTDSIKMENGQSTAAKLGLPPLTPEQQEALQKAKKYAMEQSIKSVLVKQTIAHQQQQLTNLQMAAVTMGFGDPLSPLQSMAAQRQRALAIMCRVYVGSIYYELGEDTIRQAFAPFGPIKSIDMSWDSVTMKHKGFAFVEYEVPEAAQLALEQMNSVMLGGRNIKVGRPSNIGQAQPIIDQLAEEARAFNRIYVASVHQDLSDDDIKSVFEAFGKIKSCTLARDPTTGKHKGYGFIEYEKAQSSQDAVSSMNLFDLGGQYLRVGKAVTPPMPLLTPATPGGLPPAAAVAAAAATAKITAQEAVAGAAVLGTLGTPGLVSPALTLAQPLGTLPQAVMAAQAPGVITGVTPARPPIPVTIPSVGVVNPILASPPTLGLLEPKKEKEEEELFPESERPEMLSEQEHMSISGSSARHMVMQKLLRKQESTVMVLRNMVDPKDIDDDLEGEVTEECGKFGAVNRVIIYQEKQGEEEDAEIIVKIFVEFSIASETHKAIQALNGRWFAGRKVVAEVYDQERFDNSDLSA
# UniProt P28062: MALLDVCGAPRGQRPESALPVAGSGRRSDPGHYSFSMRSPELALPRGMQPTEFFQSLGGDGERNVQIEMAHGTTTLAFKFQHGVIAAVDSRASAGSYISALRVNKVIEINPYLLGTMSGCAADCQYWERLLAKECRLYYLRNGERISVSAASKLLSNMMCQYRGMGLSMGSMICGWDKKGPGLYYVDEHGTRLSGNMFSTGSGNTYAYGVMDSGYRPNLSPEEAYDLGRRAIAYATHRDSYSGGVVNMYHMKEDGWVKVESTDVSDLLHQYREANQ
# UniProt P23467: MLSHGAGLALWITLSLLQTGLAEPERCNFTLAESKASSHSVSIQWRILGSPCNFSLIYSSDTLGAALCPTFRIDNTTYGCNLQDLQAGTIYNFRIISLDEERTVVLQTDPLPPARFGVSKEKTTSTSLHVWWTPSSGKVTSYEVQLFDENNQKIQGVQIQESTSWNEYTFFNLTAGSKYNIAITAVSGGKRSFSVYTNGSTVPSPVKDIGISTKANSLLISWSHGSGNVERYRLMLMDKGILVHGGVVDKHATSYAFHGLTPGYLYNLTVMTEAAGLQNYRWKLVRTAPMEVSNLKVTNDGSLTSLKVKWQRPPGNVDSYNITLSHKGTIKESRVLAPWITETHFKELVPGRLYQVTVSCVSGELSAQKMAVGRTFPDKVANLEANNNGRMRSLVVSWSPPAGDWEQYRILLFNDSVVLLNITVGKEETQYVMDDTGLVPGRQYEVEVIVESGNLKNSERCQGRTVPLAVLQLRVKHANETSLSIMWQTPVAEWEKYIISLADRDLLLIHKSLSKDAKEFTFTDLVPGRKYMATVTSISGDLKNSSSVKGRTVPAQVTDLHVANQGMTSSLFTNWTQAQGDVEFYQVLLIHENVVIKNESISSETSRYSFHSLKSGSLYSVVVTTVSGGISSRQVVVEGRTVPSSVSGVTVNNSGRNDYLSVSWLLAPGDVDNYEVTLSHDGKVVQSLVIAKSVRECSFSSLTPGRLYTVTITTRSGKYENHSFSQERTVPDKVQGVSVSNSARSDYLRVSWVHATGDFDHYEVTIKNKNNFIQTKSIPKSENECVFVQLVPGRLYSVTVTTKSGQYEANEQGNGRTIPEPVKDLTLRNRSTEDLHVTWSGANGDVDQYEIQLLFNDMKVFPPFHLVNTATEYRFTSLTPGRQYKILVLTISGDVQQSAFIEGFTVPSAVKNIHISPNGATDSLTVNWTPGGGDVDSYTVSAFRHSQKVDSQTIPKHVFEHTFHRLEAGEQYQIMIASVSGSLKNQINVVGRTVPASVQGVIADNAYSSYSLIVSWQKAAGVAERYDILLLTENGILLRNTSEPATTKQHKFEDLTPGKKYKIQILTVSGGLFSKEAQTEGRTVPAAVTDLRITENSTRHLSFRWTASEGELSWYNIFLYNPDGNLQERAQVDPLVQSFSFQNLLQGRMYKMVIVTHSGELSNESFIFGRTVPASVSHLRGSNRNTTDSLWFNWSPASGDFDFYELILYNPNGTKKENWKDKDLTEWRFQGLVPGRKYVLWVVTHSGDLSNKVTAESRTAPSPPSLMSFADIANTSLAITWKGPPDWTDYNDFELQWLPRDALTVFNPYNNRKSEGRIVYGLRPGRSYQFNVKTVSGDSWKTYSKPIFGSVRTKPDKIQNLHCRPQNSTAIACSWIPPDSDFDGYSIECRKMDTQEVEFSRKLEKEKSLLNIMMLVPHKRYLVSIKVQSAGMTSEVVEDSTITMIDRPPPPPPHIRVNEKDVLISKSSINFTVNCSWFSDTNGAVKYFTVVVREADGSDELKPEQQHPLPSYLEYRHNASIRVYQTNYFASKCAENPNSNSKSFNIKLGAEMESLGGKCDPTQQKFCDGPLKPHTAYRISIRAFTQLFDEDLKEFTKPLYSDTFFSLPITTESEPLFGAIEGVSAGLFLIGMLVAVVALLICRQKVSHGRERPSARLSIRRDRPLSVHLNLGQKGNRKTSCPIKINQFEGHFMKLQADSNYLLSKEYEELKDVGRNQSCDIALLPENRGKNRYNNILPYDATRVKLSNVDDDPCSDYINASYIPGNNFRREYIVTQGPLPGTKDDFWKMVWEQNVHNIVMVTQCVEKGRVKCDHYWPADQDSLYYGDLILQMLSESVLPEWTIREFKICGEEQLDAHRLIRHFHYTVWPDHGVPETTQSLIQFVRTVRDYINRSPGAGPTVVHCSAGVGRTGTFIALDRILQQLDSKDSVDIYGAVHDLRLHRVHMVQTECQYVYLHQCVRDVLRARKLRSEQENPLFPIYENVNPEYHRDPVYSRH
# UniProt P60484: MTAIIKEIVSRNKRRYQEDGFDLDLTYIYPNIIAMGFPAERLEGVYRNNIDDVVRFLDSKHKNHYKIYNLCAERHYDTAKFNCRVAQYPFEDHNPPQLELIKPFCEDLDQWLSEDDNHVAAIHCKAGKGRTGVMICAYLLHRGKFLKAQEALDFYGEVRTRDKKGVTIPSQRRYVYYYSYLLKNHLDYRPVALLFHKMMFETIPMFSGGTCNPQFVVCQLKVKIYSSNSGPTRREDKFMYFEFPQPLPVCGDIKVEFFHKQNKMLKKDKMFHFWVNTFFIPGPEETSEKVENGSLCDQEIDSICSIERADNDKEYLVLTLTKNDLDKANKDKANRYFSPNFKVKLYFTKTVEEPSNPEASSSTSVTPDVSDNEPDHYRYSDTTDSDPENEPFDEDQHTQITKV
# UniProt Q05397, whole entry, looked up: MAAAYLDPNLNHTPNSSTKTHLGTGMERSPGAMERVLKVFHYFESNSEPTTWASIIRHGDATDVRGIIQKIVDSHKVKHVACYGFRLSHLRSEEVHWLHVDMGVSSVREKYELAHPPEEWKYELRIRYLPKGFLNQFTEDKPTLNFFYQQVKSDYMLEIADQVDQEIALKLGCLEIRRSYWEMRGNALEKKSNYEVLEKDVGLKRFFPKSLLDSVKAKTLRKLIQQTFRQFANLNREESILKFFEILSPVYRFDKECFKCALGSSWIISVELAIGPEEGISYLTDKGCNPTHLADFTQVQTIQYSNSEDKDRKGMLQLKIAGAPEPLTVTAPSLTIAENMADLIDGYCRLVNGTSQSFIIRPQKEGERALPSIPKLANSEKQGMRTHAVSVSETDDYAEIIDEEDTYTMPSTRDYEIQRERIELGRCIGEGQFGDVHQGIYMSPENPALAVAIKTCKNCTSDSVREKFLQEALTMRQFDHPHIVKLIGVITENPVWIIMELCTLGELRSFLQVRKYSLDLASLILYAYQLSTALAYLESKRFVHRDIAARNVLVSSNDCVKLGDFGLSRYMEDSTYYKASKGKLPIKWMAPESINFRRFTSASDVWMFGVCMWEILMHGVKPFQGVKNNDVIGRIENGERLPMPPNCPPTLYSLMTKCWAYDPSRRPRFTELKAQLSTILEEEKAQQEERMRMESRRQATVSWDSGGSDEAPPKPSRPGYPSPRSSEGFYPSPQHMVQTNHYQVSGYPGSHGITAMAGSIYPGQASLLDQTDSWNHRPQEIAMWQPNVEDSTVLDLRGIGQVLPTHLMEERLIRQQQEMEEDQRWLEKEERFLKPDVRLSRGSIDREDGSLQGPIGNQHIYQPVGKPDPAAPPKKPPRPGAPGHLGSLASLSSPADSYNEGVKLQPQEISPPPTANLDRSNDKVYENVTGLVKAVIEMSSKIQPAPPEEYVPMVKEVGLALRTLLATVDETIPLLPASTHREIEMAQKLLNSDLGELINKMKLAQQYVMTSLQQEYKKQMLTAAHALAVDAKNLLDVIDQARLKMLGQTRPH
# UniProt Q15008: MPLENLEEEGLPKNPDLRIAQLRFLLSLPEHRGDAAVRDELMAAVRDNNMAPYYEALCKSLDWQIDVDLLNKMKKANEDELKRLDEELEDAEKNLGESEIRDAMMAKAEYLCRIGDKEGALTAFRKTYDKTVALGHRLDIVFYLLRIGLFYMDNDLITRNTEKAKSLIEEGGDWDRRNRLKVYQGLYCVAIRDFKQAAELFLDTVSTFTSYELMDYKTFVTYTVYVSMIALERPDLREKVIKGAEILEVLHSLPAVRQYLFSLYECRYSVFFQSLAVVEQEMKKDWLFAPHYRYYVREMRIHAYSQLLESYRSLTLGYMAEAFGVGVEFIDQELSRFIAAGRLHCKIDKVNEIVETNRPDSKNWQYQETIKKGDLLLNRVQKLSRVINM
# UniProt Q9BRX8: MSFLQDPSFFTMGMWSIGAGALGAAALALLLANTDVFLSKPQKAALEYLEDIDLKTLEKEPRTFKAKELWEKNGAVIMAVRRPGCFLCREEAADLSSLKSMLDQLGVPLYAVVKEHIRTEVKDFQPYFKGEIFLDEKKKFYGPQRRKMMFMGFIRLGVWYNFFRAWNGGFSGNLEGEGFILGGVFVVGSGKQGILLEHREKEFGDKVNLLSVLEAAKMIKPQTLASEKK
# The other results are listed elsewhere or left out.
# Compound: C1=CC=C(C=C1)[C@H](COC2=CC3=C(C=C2)NC(=O)N3)NC(=O)C4=CC=CN(C4=O)CC5=CC(=C(C=C5)F)F
# Assay: log2 fold change, soluble protein after heating vs DMSO (PISA); higher = thermal stabilisation; K562 lysate, 10 uM; active = over 0.2 and 3.5 SD of the protein, either way, in both replicates (recomputed)
# In short: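 Following dounce homogenisation of K562 pellets in PBS pH 7.4 with 1 mM MgCl2, crude extract at 1 mg/mL protein was incubated for 30 min with 10 μM compound. Aliquots were then heated for 3 min over 48°C-58°C and pooled, NP-40 was added to 0.5% at 4°C, and soluble protein was recovered as the supernatant at 21,000xg for 90 min. Channel-sum-equalised TMTpro 16plex LC-MS/MS quantified this protein. Each value, from duplicates, is a log-two fold change in thermal stability relative to solvent controls.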
row,Target,log2 fold change
1,PRSS50 (UniProt Q9UI38),inactive: 0.034
2,PUF60 isoform 2 (UniProt Q9UHX1),inactive: 0.091
3,PSMB8 (UniProt P28062),inactive: -0.025
4,PTPRB isoform 3 (UniProt P23467),inactive: -0.39
5,PTEN isoform 2 (UniProt P60484),inactive: 0.022
6,PTK2 isoform 2 (UniProt Q05397),inactive: 0.07
7,PSMA7 (UniProt H0Y586),inactive: -0.036
8,"PSMB2, A0A087WVV1",inactive: -0.124
9,PSMD6 (UniProt Q15008),inactive: 0.067
10,PRXL2A (UniProt Q9BRX8),inactive: -0.063
11,PSEN2 (UniProt P49810),inactive: 0.024
12,PRR12 (UniProt Q9ULL5),inactive: -0.027
13,PSIP1 (UniProt V9GYT7),inactive: 0.156

# Reformatted bar-delimited: entries from further up
row | Target | log2 fold change
6 | PTK2 isoform 2 (UniProt Q05397) | inactive: 0.07
11 | PSEN2 (UniProt P49810) | inactive: 0.024
